In the supplement of paper PMC3334620:
The full ranking holds about 33,000 sequences; the median of “E-score (-0.5 to 0.5)” is about -0.0034, and the highest 2% start at about 0.25. The list shows a part of the results.

Target: T1, Yap3 (UniProt P38749)
T1 sequence: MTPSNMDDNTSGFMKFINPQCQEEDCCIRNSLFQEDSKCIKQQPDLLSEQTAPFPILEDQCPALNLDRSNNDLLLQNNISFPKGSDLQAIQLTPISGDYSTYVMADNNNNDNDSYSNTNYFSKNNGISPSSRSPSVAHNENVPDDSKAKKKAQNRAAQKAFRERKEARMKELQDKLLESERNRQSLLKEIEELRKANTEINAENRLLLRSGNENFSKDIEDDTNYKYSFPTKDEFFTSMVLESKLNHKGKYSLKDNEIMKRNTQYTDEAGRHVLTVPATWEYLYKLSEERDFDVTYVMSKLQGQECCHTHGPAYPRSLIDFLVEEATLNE
Assay: PBM E-score (8-mer binding enrichment) (E-score (-0.5 to 0.5)); higher = stronger / more preferred TF binding
Details: protein concentration: 100 nM; construct: GST-full length
Method: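 Universal 'all 10-mer' protein binding microarrays (Agilent AMADID 015681) probed with GST-tagged S. cerevisiae TFs (full-length or DBD) made by in vitro transcription/translation (PURExpress), about 100-200 nM. Bound TF was detected with fluorescent anti-GST. Each ungapped 8-mer (which stands for itself and its reverse complement) is scored by the PBM enrichment score (E-score), a modified Wilcoxon-Mann-Whitney statistic from -0.5 to +0.5, computed with the Universal PBM Analysis Suite. Scale: above 0.35 generally sequence-specific binding.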

Sequence | PBM E-score
CATCCTGA | 0.0387
CCATGGTA | 0.0047
ACGGTGAG | 0.0341
GGATTTTA | 0.139
CTACGTAG | -0.039
AAGCGTCT | -0.163
CATGCTTA | 0.0813
TCTAATCA | 0.185
CACCGTAC | 0.097
AAATCCTG | 0.117
GTAATCGA | 0.167
TGGAAACA | 0.0668
GAGATTCA | 0.026
AGTGGCTA | -0.127
ACGAACAC | 0.154
CCTAAAGA | -0.123
ATGTAAGC | 0.264
AGGCCTTA | -0.104
CAATGACG | -0.0644
TATTATCA | 0.179
CTTTTTAA | 0.04
CGGCGTCA | -0.0918
CTCTGCAG | -0.00393
AAGATCTT | 0.214
CTCGTTTA | 0.0591

Sequence | PBM E-score
CGTTTCCA | 0.105
CCCTTGAC | -0.0534
CAACTATG | 0.141
CGATTTCA | 0.00447
CAGGACTA | -0.0749
ACTATCAA | 0.165
CCAGCCGA | -0.199
CGGAACTC | -0.103
AATAGACC | -0.134
GATGTCAC | 0.0205
ACCGTAAT | 0.145
ATGAGAAC | 0.0902
ATCATGAC | 0.222
ACAAGCGG | 0.122
AAGCTTTA | 0.0767
CAGCGTAC | -0.111
CTCCTTTC | -0.108
AATGTCGC | 0.098
CTCCGGCA | -0.133
GGGTCGAC | -0.109
CCAAGGCA | -0.096
ACCGTGTC | -0.0831
GACCCAAC | 0.0145
ACACTTCC | 0.0193
AGGGTATA | 0.168

Shown in markdown: part of the list above.

| Sequence | PBM E-score |
| --- | --- |
| GATGTCAC | 0.0205 |
| ACCGTAAT | 0.145 |

(list continues)

Sequence | PBM E-score
ATGGGTTC | -0.0764
TCAAATAA | 0.133
ATTTCTCA | 0.0516
CGGGGTAC | -0.251
CAGGTCGC | -0.0059
ACTGTAGA | 0.0938
GCCTATCA | 0.108
CGTATAAA | 0.156
ATGTGATC | 0.188
CCATCACC | 0.0411
ATCACTTG | 0.062
GCGGGGGA | -0.257
GGTCGCAA | -0.0125
ATATAGGA | 0.151
CCGTGTAA | -0.0506
AAGGCACC | -0.0985
CTACTCAA | 0.192
GACTCAGC | 0.00341
ACTCAGTA | 0.244
CAACGCCG | -0.047
CCACAAGC | -0.159
AACAGAAG | 0.00147
CAGCTTTC | -0.0897
GCGGGGCA | -0.108
ACAGTTCT | 0.0834

Sequence | PBM E-score
CGAGCAAG | -0.0922
TCTGCGAA | -0.259
GCGGTGAC | 0.0393
TAAGGCCA | -0.00239
CTACGCGC | -0.0286
GCGATTGA | -0.00574
ACGTGTCA | 0.0266
GTTTTATA | 0.139
ACGATTCT | 0.147
ACTCAATG | 0.0458
ACCTCGGG | -0.053
GAGGGTAA | 0.00766
AACTCCCT | -0.0742
CATTTATC | 0.198
GACAGATC | 0.0539
ACAAAACC | 0.272
CGCCGTAC | -0.104
CTGCTCTC | -0.0852
GCATCTAC | 0.00556
GACGACCC | -0.199
ACTCCGAG | 0.0726
AGTTGGTA | 0.166
ACTTGGCG | -0.0957
GCGACCCC | -0.349
CGAAAGCG | -0.155

Individual results from the results shown.
Under PBM E-score, GCATCTAC is entered as 0.00556
Under PBM E-score, AACTCCCT is entered as -0.0742
Under PBM E-score, CCATCACC is entered as 0.0411

Later entries

Sequence | PBM E-score
AACTCAAG | 0.0218
ACCAGAGC | -0.0251
AATGGAAC | 0.12
AAGAATAG | 0.0892
CCTTGTCG | -0.133
ATCTCATG | 0.134
GGGACATA | 0.0437
AGGGCTCC | -0.28
AACAGACG | -0.0301
AAACTTCG | 0.00269
GCAAAGAC | 0.0185
AAGAATAA | 0.151
ACAATAGT | 0.144
GCATTCAC | 0.16
ACATCGGC | -0.0478
GTCGTATA | 0.0408
CTACATGC | 0.0316
AAGGAGCT | -0.2
AATGCCAC | -0.0923
ACTTGGAA | -0.143
ACGGCAAG | 0.1
ATCTGGCA | -0.0274
CCAGACGA | -0.115
ACTGATGA | 0.159
GAAACCGA | 0.0654

Sequence | PBM E-score
GTGGGTGA | 0.131
ACATAATA | 0.353
CCTCAATC | -0.0381
CCAAAAGG | -0.205
GTTGATCA | 0.027
GAATAGAC | 0.0977
ACAGTGTG | 0.0708
AGCGTGTA | -0.0241
AATCTAGG | 0.145
CTGCAAGC | -0.147
CCAGCAGA | -0.17
CATCGGAG | -0.206
CTGATCAA | -0.0934
CGACAAAC | -0.0438
AATTCAGA | 0.172
AATTAAGT | 0.221
CAGATCTG | -0.0442
GGCACGAA | 0.0703
CGTCGTAC | 0.0124
ACTGGAGC | -0.294
GGAATTCA | 0.148
ACAAAACT | 0.206
CAAAAGCG | 0.0288
CTTGGCAA | -0.0653
GGAGTACA | -0.0901

Sequence | PBM E-score
CAATGCTG | -0.114
TGACCTCA | -0.128
CACGGGGG | -0.333
CGCAGCCG | -0.235
AAATAGGA | 0.213
AACTGCTG | -0.108
AGAGGGTA | -0.137
CCGTTCTC | 0.0108
CGCTCAAA | 0.0898
GATAATTA | 0.251
CACTGACG | -0.155
CAGAACTA | -0.0471
CCCAACCC | 0.0611
ACGCCACT | -0.0148
CGTTAGCC | 0.108
TAAGCGGA | 9e-05
AGTGTACG | 0.0517
AGCTACCG | -0.195
ATCCAATA | 0.143
TATGTGCA | 0.00178
CGCTGACG | -0.286
TATAAACA | 0.177
